Publication PMC8052345
Results are given in words; binding and its absence hold for the method and conditions named. Binding seen in cells or lysates may run through a third protein. Tags and fused reporters may be left off the sequences shown.

Protein sequences, listed by entry. Tags and fused reporters are not part of them.
UniProt Q07812: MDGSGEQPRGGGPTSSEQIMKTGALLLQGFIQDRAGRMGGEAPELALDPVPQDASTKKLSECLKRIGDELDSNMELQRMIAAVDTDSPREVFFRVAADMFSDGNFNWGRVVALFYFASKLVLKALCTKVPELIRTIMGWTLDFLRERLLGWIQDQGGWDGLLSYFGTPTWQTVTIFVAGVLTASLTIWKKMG

Target: T1, Flag-tagged dual-specificity phosphatase 16 (DUSP16) (human) (UniProt Q9BY84)
T1 sequence: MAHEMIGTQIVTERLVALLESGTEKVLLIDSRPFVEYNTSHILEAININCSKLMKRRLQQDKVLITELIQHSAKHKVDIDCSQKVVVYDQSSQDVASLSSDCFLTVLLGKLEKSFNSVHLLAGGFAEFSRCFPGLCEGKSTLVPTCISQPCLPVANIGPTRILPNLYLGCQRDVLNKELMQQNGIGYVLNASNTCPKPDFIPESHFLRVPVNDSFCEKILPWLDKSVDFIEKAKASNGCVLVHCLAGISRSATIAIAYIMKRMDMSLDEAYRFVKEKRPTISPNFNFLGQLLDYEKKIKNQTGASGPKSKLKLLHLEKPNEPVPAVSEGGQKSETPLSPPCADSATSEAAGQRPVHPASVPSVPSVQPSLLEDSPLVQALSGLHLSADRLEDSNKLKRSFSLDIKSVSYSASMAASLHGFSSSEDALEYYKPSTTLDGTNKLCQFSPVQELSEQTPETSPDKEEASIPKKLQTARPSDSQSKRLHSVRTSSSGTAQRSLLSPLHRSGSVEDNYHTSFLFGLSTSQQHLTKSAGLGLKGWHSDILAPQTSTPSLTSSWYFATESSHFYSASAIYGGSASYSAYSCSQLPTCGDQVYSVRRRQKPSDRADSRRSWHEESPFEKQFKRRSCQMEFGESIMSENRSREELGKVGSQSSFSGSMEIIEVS
Test: co-IP; Flag-tagged DUSP16 expression plasmid transfected into HEK293 T cells; DUSP16 immunoprecipitated; endogenous JNK, p38 and BAX examined in the precipitate

For “BAX, endogenous (from UniProt Q07812 1-192)”, the binding was “no binding”.
